Test results from paper PMC12288466, “EzrA promotes Z-ring formation through interaction of its QNR motif with FtsA” (Journal of Bacteriology, 2025).

The chains behind the UniProt entries cited, without tags or fusion partners.
UniProt A0A0H3MTL7: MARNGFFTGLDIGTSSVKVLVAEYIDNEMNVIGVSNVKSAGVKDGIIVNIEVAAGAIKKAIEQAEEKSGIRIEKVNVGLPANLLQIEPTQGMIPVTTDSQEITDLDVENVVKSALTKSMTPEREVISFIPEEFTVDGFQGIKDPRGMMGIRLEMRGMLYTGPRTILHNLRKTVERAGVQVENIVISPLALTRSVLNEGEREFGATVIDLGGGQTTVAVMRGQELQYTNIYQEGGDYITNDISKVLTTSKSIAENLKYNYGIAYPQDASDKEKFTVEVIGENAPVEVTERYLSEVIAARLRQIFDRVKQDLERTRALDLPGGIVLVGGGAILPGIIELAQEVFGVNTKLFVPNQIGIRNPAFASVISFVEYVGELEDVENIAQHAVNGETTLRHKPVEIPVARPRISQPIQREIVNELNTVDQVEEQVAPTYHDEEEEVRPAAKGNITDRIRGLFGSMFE
UniProt A0A0H3MXZ7: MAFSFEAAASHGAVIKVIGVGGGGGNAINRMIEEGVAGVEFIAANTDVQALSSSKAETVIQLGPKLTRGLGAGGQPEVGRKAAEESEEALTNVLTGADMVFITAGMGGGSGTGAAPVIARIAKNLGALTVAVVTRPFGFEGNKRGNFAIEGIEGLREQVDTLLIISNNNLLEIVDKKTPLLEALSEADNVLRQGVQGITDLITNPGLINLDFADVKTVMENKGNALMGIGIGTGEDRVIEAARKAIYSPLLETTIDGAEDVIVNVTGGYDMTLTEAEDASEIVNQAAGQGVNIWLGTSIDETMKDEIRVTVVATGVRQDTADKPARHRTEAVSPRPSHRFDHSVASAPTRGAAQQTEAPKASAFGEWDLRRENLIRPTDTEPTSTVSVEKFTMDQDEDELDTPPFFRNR

Columns and labels:
[1] = target: EzrA-3×FLAG (Streptococcus suis (strain SC19)) (UniProt A4VWI6); assay: affinity purification with mass spectrometry; FLAG magnetic agarose on S. suis lysates (0.1 M Tris-HCl pH 7.5, 150 mM NaCl, 1% Triton X-100), 20 min at room temperature, without cross-linking; label-free quantification (MaxLFQ)
[2] = target: EzrA^R514D-3×FLAG (Streptococcus suis (strain SC19)); assay: as above

| Molecule | binding [1] | binding [2] |
| --- | --- | --- |
| FtsA (from UniProt A0A0H3MTL7 1-459) | binds | – |
| FtsZ (from UniProt A0A0H3MXZ7 1-409) | binds | – |
| SepF (protein, UniProt A4VTL1 1-187) MALKDTFKNLFNYFEVDEVNEVEEQADAYSMPNDRPKMRVANTTVAPVREQQPKVETRREARSESQLQRLHERQQELMTNNNEKEIVKTTIDIKFPKRYEDAPEMVNLLLDNASILIDFQYMSEQQARRCLDYLDGARSVLSGNLKKVSNTMWLLTPVNVTVNIEELRNAGTTTGVADSNFEFDIKR | binds | binds |

These are yes or no findings as the source states them, for the method shown. Binding seen in cells or lysates may run through a third protein. A yes stands for co-enrichment or nearness to the bait. Other partners may have been found.
